Test results published in US20200405758A1.
No constants are given. Whether binding was seen depends on the method and setting. Some results given as binding are weak or reduced against the parent protein; the word gives no strength.

Biological target: T1, SEQ ID NO: 2 peptide (Modified sequence of Antigen; BCMA peptide with Cysteine and Proline added at N terminal end)
T1 sequence (peptide): CPAALSATEIEKSIS
Assay: ELISA on coated SEQ ID NO: 2 peptide

B1: BCMA mAb clone 1E1E (hybridoma supernatant) (antibody, V domains shown)
VH: QIQLVQSGPELKKPGETVKISCKASGYTFTNSGMNWVKQAPGKGLKWMGWINTYTGEPTYADDFKGRFAFSLETSASTAYLQINNLKNEDTATYFCVRAGSYRNYAMDYWGQGTSVTVSS
VL: DIVMTQAAPSVLVTPGESVSISCRSSKSLLYGNGNTYLYWFLQRPGQSPQLLIYRMSNLASGVPDRFSGSGSGTAFTLRISRVEAEDVGVYYCMQHLEYPLTFGAGTKLELK
**Q.** How did the binding turn out when B1 was run?
**A.** binds
